Measured values as given in the supplement of paper PMC12819154, “High-throughput peptide-centric local stability assay extends protein–ligand identification to membrane proteins, tissues and bacteria” (Nature Structural & Molecular Biology, 2025).
The other results are listed elsewhere or left out. Most entries show no effect beyond the scatter of the controls.

Amino acid sequences for entries named in this document (tags omitted). A change or cut given only in a name is not applied to a line headed by its entry.
UniProt P37040: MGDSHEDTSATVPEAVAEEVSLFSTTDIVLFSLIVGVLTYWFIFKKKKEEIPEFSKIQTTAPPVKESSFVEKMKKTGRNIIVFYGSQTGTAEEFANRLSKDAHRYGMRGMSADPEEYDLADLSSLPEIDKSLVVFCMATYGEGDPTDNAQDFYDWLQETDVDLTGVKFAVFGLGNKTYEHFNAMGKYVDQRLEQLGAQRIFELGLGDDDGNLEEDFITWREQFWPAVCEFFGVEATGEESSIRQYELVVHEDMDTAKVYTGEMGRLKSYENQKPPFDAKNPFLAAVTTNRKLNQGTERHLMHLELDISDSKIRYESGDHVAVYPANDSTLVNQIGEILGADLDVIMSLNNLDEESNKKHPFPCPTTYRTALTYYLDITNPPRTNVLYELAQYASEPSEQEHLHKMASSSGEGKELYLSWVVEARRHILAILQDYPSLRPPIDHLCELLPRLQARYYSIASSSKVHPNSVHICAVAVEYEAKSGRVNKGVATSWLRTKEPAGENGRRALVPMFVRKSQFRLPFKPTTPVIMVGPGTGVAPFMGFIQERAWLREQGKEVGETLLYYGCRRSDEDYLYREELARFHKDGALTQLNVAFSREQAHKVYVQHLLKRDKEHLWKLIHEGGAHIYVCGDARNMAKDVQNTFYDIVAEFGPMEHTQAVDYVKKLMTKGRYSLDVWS
UniProt P51655: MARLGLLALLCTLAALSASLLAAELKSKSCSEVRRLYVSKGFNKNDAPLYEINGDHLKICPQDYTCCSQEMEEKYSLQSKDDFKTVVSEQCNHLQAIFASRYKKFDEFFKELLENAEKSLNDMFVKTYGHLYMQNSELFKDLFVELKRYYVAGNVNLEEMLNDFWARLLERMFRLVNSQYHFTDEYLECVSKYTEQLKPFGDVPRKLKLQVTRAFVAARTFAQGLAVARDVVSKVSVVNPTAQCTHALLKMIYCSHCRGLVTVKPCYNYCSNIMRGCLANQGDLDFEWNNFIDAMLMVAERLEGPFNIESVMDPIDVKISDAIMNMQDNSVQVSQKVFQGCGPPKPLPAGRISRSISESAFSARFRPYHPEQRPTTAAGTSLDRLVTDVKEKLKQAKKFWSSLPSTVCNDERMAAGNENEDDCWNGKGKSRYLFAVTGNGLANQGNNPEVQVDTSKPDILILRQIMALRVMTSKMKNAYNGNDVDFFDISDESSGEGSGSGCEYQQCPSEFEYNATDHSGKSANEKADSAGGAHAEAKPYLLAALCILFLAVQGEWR
UniProt P47857: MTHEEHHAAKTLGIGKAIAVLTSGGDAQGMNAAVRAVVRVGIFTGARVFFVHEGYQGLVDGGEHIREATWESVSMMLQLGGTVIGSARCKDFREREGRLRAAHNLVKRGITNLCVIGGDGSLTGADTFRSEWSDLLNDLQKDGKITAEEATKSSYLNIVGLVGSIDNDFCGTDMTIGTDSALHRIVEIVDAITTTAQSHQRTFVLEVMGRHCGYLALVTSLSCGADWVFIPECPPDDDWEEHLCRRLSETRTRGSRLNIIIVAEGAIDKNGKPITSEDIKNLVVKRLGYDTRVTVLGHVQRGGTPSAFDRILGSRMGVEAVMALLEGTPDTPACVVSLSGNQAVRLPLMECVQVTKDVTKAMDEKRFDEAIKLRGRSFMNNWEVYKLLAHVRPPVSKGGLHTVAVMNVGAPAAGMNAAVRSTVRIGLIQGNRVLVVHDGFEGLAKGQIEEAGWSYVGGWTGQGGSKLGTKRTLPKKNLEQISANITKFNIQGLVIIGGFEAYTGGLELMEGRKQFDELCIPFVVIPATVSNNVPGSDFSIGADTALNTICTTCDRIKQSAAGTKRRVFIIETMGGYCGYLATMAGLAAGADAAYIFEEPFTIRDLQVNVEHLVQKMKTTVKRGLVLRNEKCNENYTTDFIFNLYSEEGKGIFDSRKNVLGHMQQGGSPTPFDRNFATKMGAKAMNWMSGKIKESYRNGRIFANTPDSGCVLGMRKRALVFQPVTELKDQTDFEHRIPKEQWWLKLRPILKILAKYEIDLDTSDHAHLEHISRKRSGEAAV
UniProt P47877: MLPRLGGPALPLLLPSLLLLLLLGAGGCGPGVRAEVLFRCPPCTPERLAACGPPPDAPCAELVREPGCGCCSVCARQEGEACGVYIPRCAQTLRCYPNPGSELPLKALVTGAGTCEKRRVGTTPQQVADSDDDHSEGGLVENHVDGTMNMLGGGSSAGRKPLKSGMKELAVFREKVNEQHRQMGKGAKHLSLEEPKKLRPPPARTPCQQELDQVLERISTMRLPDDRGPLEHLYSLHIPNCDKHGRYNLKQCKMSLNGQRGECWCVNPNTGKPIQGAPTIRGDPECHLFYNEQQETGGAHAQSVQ
UniProt P48760: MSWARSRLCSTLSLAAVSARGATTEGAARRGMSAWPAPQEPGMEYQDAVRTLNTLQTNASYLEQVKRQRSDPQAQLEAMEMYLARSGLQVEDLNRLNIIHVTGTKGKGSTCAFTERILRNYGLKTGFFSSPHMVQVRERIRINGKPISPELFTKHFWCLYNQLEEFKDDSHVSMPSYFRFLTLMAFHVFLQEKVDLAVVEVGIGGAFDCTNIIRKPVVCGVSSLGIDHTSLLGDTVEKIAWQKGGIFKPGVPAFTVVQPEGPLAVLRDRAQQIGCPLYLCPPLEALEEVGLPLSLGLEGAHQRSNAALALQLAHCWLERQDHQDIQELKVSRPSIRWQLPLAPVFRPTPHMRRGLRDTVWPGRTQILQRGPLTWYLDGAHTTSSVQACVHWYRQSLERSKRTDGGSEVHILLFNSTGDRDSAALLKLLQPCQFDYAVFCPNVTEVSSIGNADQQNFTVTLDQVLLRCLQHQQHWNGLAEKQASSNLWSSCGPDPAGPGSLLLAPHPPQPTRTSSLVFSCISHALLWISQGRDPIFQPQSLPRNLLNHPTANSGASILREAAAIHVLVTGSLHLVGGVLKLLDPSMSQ
UniProt P43346: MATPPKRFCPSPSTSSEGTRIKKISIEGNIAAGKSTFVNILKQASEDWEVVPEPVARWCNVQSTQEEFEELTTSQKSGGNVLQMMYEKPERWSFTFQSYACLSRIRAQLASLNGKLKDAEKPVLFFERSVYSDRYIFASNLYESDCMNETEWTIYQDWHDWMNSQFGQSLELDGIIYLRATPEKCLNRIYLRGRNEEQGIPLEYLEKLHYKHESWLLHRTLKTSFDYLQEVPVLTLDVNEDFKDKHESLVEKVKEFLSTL
UniProt P48024, whole entry: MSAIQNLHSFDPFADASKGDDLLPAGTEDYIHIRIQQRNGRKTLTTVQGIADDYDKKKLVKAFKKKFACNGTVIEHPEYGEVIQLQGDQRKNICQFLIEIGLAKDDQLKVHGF
UniProt P48437: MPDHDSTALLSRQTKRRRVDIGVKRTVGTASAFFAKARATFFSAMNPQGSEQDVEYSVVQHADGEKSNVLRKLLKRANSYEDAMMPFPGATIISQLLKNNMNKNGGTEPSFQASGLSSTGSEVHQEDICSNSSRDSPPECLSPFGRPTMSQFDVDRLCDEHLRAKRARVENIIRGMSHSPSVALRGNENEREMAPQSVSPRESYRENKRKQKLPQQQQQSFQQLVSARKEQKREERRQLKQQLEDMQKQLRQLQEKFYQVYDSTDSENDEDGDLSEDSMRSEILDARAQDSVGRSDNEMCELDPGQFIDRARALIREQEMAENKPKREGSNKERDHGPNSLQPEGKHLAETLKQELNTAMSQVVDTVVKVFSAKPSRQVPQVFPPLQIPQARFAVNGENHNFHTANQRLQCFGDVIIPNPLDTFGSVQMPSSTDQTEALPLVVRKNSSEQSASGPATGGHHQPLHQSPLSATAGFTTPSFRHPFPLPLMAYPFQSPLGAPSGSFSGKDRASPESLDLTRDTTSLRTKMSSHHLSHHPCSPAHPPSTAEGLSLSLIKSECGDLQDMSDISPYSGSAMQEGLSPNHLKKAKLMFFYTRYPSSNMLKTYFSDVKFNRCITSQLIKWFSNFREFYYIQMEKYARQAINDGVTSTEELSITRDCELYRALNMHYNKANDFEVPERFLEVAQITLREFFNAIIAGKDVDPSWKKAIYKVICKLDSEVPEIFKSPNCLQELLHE
UniProt P49698: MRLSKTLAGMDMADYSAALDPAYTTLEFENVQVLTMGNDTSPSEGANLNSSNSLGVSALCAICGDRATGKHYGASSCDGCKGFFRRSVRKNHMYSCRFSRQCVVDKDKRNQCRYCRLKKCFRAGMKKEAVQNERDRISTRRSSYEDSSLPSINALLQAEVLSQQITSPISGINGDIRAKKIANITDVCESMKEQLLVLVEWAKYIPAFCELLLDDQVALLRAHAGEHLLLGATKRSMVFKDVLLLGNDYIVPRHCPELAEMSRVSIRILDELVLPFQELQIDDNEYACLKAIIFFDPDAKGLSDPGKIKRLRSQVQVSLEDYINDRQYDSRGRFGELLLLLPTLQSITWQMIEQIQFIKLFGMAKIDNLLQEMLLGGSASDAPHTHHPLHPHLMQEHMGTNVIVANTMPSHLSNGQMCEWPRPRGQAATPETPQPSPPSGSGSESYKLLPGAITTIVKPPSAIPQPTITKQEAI
UniProt P40224, whole entry: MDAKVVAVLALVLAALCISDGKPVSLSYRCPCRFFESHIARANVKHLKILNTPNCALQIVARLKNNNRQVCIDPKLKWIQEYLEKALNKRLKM
UniProt P35991: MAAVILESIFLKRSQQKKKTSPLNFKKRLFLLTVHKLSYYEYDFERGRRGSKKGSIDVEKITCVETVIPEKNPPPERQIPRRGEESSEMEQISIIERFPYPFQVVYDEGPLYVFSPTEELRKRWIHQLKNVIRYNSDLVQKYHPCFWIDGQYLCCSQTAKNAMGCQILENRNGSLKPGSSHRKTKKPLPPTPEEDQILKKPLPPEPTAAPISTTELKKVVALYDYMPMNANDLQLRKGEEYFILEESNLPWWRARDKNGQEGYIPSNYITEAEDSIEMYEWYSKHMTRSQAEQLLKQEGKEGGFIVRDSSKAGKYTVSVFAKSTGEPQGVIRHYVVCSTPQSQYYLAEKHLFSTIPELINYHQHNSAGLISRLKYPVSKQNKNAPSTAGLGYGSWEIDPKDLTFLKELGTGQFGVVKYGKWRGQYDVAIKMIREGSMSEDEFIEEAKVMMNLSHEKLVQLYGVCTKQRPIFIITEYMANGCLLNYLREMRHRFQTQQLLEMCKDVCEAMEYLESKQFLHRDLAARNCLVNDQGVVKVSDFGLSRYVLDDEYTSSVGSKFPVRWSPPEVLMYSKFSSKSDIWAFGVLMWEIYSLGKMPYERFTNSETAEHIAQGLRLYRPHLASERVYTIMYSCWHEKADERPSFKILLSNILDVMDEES
UniProt P41158: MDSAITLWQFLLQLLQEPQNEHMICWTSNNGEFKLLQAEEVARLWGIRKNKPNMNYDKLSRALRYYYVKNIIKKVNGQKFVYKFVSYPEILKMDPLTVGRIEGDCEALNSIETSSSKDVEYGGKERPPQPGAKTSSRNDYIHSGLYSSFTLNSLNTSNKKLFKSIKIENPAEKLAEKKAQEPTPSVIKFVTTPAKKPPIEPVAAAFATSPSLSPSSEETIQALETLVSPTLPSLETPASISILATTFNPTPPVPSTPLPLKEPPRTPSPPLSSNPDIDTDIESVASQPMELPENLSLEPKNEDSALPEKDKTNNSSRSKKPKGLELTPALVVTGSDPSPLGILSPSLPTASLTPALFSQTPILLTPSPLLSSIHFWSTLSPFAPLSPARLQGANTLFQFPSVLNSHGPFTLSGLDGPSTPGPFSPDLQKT
UniProt P53702: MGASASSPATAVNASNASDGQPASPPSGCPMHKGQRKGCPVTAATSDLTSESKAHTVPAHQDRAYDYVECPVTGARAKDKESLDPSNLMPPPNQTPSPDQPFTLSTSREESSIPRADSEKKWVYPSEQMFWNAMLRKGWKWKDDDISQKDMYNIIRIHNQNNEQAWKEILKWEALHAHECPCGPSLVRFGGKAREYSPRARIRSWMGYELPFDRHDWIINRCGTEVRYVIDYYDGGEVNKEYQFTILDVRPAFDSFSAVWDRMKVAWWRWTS
UniProt P43024, whole entry: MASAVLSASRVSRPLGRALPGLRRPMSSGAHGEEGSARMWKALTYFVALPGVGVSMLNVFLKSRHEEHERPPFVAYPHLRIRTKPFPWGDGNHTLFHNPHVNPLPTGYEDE
UniProt P51855: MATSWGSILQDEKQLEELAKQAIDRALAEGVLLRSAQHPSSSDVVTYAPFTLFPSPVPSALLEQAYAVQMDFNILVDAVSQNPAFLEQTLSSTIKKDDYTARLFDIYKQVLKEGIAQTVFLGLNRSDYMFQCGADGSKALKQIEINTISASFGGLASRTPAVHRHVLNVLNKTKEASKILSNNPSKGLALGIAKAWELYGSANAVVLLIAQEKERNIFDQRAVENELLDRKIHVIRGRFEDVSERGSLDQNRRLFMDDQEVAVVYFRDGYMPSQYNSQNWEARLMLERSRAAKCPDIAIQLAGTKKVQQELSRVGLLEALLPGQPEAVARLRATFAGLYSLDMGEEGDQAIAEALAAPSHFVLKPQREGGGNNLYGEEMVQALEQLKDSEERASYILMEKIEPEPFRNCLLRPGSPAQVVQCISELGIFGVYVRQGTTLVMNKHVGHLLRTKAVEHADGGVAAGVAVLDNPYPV

compound: CN[C@@H]1C[C@H]2O[C@@](C)([C@@H]1OC)n1c3ccccc3c3c4c(c5c6ccccc6n2c5c31)C(=O)NC4 [staurosporine]; test: log2 fold change of tryptic peptide abundance, ligand vs vehicle (limited proteolysis) (log2 ratio); higher = more trypsin-susceptible (destabilized); conditions: ligand concentration: 20 uM; sample: mouse liver crude lysate; replicate design: treated separately

Row | Target | log2 fold change
1 | UniProt P35821 (peptide sequence: KDPSSVDIKK, peptide start residue: 239) | 0.544
2 | UniProt P47963 (peptide sequence: ARVITEEEK, peptide start residue: 166) | -0.152
3 | UniProt P37040 (peptide sequence: IQTTAPPVK, peptide start residue: 57) | 0.344
4 | UniProt P52624 (peptide sequence: CSNITIIR, peptide start residue: 132) | -0.505
5 | UniProt P51655 (peptide sequence: MIYCSHCR, peptide start residue: 251) | -0.321
6 | UniProt P35396 (peptide sequence: CLALGMSHNAIR, peptide start residue: 132) | 0.132
7 | UniProt P47857 (peptide sequence: VFFVHEGYQGLVDGGEHIR, peptide start residue: 48) | -0.229
8 | UniProt P35822 (peptide sequence: VADLLQHINLMK, peptide start residue: 881) | -0.236
9 | UniProt P47877 (peptide sequence: ALVTGAGTCEKR, peptide start residue: 107) | -0.562
10 | UniProt P35486 (peptide sequence: GPILMELQTYR, peptide start residue: 278) | 0.116
11 | UniProt P49813 (peptide sequence: DREDLVPYTGEKR, peptide start residue: 80) | 0.246
12 | UniProt P48760 (peptide sequence: WQLPLAPVFRPTPHMR, peptide start residue: 337) | -0.24
13 | UniProt P43346 (peptide sequence: STFVNILK, peptide start residue: 35) | 0.161
14 | UniProt P43352 (peptide sequence: RQSHAPAEEVAAK, peptide start residue: 285) | 0.344
15 | UniProt P48024 (peptide sequence: TLTTVQGIADDYDKK, peptide start residue: 43) | 0.0613
16 | UniProt P47791 (peptide sequence: MVCANKEEK, peptide start residue: 443) | 0.382
17 | UniProt P48437 (peptide sequence: VFSAKPSR, peptide start residue: 370) | -0.247
18 | UniProt P49698 (peptide sequence: AHAGEHLLLGATK, peptide start residue: 222) | -0.203
19 | UniProt P43277 (peptide sequence: SETAPAAPAAPAPVEKTPVK, peptide start residue: 2) | -0.236
20 | UniProt P52795 (peptide sequence: AAALSLSTLASPK, peptide start residue: 276) | -0.265

Row | Target | log2 fold change
21 | UniProt P40224 (peptide sequence: FFESHIAR, peptide start residue: 34) | 0.184
22 | UniProt P35991 (peptide sequence: NCLVNDQGVVK, peptide start residue: 526) | 0.606
23 | UniProt P39053 (peptide sequence: TIGVITKLDLMDEGTDAR, peptide start residue: 200) | 0.207
24 | UniProt P41158 (peptide sequence: ERPPQPGAK, peptide start residue: 125) | -0.475
25 | UniProt P49710 (peptide sequence: KKELESGPK, peptide start residue: 70) | -0.569
26 | UniProt P49182 (peptide sequence: SVNGLYIQK, peptide start residue: 199) | -0.213
27 | UniProt P48193 (peptide sequence: NFMESVPEPRPSEWDKR, peptide start residue: 685) | 0.373
28 | UniProt P49117 (peptide sequence: HYGAVSCEGCK, peptide start residue: 128) | 0.413
29 | UniProt P52840 (peptide sequence: RTHPVLYLFYEDMK, peptide start residue: 180) | 0.418
30 | UniProt P40338 (peptide sequence: SLVKPENYR, peptide start residue: 134) | 0.357
31 | UniProt P46471 (peptide sequence: IINADSEDPKYIINVK, peptide start residue: 101) | -0.156
32 | UniProt P53702 (peptide sequence: KGCPVTAATSDLTSESK, peptide start residue: 37) | -0.305
33 | UniProt P47713 (peptide sequence: CSVSLSNVEAR, peptide start residue: 725) | -0.0388
34 | UniProt P43024 (peptide sequence: SRHEEHERPPFVAYPHLR, peptide start residue: 63) | -0.195
35 | UniProt P50172 (peptide sequence: MGAHVVLTAR, peptide start residue: 57) | -0.788
36 | UniProt P51660 (peptide sequence: ISDEDWDIIHRVHLR, peptide start residue: 111) | 0.373
37 | UniProt P51855 (peptide sequence: ASYILMEK, peptide start residue: 393) | 0.12
38 | UniProt P47738 (peptide sequence: VVGNPFDSR, peptide start residue: 349) | 0.185
39 | UniProt P35601 (peptide sequence: LNDEAIAK, peptide start residue: 197) | -0.335

Random excerpt: two entries already listed
Row | Target | log2 fold change
31 | UniProt P46471 (peptide sequence: IINADSEDPKYIINVK, peptide start residue: 101) | -0.156
33 | UniProt P47713 (peptide sequence: CSVSLSNVEAR, peptide start residue: 725) | -0.0388
